PubChem BioAssay AID652272 | Drosophila RNAi Screening Center – 2013
In all, the deposit lists about 21,000 reagents; shown is a random part of those that have a named target and a result. Over the whole deposit, 503 (2.4%) got an active call. 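Raw plate light values, not normalised; calls rest on replicate z-scores that were not deposited; hits include reporter decreases as well as increases.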 Reagents against one gene are numbered here. No sequences are given here. Not stated in the record: the amount of reagent, the time to read-out.

Screen: 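Genome-wide knock-down search for components of Hedgehog signalling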 (primary screen)
System: Drosophila clone 8 (Cl8) cells
Reagent: long dsRNA against Drosophila genes
Measured: 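Plate reader light from a firefly reporter under a ptc promoter fragment that responds to Hedgehog, with Renilla light as transfection reference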
Direction: firefly Hh reporter signal: higher = more ptc reporter light; Renilla reference signal: higher = more Renilla control light
Call rule: 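Hit when the z-score averaged over two replicates is under -2 or over +3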
Calls: active = hit: reporter lowered or raised; inactive = not a hit

gene	dsRNA no.	firefly Hh reporter signal, replicate 1	firefly Hh reporter signal, replicate 2	firefly Hh reporter signal, replicate 3	Renilla reference signal, replicate 1	Renilla reference signal, replicate 2	call
ey	1	59417	1.50e5		1440	6641	inactive
CG9676	1	74027	1.27e5		3321	6913	inactive
CG6686	1	58900	41397		3152	2824	inactive
CG33158	1	5.36e5	1.27e5		6273	6273	inactive
CG33158	2	1.28e5			8173	3993	inactive
CG33158	3	73568			4986	2531	inactive
Snp	1	1.01e5	76784		2489	6796	inactive
side-VIII	1	1.12e5	2.25e5		2905	9460	inactive
side-VIII	2	50080	78525		459	5144	inactive
side-VIII	3	99926	6.75e5	45529	2328	37256	inactive
kek5	1	1.00e5	1.75e5		3673	7344	inactive
abs	1	1.23e5	91184		6091	4305	inactive
COX6CL	1	5.97e5	1.65e5		28114	7731	inactive
Ctr1C	1	1.18e5	1.12e5		3515	3397	inactive
CG6041	1	71117	1.44e5		1939	6215	inactive

2 of these entries, reformatted.
| gene | dsRNA no. | firefly Hh reporter signal, replicate 1 | firefly Hh reporter signal, replicate 2 | firefly Hh reporter signal, replicate 3 | Renilla reference signal, replicate 1 | Renilla reference signal, replicate 2 | call |
| --- | --- | --- | --- | --- | --- | --- | --- |
| CG6686 | 1 | 58900 | 41397 | – | 3152 | 2824 | inactive |
| CG33158 | 1 | 5.36e5 | 1.27e5 | – | 6273 | 6273 | inactive |

The results go on.
gene	dsRNA no.	firefly Hh reporter signal, replicate 1	firefly Hh reporter signal, replicate 2	firefly Hh reporter signal, replicate 3	Renilla reference signal, replicate 1	Renilla reference signal, replicate 2	call
otk	1	96537	49715		2429	4048	inactive
Sem1	1	80100	45152		2490	5101	inactive
rdhB	1	1.06e5	59540		4362	2339	inactive
CG12698	1	70361	1.53e5		1932	6540	inactive
snu	1	1.11e5	1.19e5		2173	3098	inactive
THADA	1	1.38e5	1.59e5		3440	3641	inactive
CG31952	1	1.51e5	1.45e5		3229	9984	inactive
CG42254 (retired record)	1	51172	54304		996	3472	inactive
